Laboratory results: paper PMC6710278

Chains of the proteins cited; added tags and fusions are not shown.
UniProt P70351: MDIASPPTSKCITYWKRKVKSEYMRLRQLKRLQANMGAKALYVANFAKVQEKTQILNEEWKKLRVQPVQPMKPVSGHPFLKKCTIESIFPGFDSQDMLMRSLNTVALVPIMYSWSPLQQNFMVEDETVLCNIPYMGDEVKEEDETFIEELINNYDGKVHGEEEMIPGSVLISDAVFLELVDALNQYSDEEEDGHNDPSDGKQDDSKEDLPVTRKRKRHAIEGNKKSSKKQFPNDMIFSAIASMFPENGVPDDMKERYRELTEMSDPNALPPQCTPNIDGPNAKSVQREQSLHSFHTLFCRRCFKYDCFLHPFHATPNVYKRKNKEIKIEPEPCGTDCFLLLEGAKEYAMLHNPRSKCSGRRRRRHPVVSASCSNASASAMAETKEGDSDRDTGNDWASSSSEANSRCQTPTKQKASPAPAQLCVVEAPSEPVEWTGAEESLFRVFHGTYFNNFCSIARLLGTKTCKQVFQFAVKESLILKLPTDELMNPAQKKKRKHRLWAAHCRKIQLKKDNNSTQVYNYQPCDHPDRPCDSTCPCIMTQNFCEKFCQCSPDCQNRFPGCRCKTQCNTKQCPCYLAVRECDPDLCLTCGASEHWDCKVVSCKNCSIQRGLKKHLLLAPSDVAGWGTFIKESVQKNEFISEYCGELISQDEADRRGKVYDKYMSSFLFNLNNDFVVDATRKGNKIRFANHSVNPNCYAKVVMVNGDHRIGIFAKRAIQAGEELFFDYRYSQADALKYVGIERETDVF
UniProt Q61188: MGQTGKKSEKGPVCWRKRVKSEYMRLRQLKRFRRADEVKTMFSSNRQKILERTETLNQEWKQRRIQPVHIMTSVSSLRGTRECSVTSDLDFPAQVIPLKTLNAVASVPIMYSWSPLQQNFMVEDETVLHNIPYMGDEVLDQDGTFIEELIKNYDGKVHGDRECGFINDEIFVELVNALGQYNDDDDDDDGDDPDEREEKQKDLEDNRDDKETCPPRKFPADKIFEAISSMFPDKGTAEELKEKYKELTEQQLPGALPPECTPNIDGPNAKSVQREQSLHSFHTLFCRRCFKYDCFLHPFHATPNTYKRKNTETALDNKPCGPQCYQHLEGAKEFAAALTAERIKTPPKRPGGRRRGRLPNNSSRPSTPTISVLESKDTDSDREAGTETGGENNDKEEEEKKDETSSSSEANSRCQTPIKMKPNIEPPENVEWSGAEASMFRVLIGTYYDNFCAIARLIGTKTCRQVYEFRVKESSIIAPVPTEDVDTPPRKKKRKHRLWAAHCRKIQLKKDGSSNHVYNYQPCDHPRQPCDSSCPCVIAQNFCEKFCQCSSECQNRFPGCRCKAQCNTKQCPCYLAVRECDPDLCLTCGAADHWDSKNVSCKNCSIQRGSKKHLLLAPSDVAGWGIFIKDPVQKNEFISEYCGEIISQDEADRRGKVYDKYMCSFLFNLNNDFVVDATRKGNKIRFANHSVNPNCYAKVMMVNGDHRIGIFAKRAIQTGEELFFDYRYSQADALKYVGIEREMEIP
UniProt Q02395: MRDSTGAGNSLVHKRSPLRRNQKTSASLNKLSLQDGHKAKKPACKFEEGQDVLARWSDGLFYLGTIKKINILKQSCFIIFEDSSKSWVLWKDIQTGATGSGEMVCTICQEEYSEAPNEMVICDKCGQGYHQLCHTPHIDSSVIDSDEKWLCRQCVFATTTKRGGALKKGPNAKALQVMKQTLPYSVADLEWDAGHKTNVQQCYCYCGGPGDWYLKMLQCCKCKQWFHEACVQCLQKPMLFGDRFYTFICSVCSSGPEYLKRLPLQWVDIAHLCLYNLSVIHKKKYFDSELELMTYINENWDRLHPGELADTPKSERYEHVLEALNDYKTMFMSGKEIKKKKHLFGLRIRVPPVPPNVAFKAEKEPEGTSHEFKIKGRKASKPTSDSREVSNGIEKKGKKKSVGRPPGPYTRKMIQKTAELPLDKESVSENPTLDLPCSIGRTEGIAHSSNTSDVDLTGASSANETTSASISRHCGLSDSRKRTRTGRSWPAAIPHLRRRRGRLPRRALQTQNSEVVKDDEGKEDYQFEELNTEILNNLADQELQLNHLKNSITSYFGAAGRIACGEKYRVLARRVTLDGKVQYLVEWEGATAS
UniProt Q9Z1B8: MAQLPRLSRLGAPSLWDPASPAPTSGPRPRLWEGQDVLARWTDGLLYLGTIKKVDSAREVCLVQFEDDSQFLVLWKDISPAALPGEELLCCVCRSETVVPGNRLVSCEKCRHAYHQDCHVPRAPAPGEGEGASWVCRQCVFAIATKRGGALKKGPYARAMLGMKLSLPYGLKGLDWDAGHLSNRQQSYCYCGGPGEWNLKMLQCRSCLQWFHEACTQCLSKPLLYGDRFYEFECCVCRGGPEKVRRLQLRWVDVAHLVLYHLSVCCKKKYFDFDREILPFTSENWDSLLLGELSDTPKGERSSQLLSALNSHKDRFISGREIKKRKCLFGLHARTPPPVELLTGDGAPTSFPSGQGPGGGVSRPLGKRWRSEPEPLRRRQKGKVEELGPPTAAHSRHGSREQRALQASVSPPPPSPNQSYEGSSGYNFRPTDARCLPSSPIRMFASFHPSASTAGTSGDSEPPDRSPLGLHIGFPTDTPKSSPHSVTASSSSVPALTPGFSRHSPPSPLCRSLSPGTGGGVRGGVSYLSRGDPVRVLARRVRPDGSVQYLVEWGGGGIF
UniProt Q93009: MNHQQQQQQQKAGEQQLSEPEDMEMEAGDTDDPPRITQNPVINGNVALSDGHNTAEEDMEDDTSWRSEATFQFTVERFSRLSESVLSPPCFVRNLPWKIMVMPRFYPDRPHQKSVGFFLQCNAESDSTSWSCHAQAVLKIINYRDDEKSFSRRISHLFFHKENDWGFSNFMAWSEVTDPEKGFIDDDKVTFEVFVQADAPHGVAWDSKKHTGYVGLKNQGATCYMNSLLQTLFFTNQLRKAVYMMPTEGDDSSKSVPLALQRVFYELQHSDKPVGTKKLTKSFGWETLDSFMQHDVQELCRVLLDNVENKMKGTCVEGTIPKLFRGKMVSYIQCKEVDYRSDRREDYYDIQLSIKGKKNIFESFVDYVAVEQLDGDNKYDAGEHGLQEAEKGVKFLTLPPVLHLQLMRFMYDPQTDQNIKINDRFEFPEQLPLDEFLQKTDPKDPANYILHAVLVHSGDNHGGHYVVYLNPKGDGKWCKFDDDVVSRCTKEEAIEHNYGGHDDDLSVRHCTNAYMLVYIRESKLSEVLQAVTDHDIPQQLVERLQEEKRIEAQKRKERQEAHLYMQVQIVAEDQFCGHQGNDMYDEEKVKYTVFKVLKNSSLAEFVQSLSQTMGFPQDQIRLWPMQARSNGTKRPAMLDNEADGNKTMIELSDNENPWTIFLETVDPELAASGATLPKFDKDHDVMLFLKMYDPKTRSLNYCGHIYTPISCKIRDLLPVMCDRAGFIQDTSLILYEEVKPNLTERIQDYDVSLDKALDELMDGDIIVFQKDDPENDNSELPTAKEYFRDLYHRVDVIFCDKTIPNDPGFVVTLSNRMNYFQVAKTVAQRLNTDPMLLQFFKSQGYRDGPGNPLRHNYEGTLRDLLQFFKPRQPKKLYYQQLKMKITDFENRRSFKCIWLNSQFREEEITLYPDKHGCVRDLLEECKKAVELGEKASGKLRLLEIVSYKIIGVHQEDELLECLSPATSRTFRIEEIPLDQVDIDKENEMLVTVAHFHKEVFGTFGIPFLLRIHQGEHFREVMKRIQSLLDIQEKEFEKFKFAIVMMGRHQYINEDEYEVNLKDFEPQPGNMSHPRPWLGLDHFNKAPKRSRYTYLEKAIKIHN

Key:
[1] = target: N-terminal Flag-tagged EZH1 expressed from the endogenous locus (knock-in mouse) (mouse) (UniProt P70351); experiment: affinity purification with mass spectrometry; single step Flag-IP (Flag M2 beads) from nuclear extract of adult mouse testes (EZH2-Flag or EZH1-Flag knock-in against WT control), three independent IPs, on-bead trypsin digestion, LC-MS/MS
[2] = target: N-terminal Flag-tagged EZH2 expressed from the endogenous locus (knock-in mouse) (mouse) (UniProt Q61188); experiment: as above
[3] = target: T1, Flag-tagged human EZHIP overexpressed in HeLa-S3 cells (human) (UniProt Q86X51); experiment: affinity purification with mass spectrometry; single step Flag-IP from nuclear extract of HeLa-S3 cells overexpressing Flag-tagged mouse or human EZHIP against WT cells, n = 3, on-bead trypsin digestion, LC-MS/MS
T1 sequence: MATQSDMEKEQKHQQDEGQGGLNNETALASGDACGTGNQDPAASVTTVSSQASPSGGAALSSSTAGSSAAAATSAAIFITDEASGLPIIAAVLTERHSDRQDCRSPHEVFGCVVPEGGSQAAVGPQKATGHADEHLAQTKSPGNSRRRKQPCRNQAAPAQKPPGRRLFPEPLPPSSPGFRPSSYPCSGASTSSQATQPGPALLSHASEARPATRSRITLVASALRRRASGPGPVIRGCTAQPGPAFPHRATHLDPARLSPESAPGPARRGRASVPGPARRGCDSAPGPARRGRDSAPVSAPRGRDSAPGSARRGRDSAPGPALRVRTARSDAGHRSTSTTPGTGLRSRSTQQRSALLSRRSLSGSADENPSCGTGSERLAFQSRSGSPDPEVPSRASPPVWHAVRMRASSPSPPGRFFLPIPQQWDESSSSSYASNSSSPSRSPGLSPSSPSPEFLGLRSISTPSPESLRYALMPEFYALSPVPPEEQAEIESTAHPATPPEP

[4] = target: T2, Flag-tagged mouse EZHIP overexpressed in HeLa-S3 cells (mouse) (UniProt B1B0V2); experiment: as above
T2 sequence: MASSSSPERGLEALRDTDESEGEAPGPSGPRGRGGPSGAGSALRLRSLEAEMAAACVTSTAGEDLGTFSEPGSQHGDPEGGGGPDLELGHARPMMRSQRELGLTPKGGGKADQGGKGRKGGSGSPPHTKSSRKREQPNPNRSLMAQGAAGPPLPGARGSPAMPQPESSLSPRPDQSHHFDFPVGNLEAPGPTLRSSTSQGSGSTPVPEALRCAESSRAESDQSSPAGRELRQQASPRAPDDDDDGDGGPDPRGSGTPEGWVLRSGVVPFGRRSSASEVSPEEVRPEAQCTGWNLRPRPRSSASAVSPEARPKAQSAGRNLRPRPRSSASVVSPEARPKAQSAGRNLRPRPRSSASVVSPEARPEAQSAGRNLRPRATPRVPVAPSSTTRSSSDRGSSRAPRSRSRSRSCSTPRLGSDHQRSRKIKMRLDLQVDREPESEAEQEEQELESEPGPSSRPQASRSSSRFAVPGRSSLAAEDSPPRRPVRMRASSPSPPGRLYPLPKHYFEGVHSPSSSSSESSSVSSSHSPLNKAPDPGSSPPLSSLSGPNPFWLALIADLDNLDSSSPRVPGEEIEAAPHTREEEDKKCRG

Molecule: MTF2 (mouse testis) (from UniProt Q02395 1-593)
- binding [1]: binds
- binding [2]: binds

Molecule: PHF1 (mouse testis) (from UniProt Q9Z1B8 1-559)
- binding [1]: binds
- binding [2]: binds

Molecule: USP7 (HeLa-S3) (from UniProt Q93009 1-1102)
- binding [3]: binds
- binding [4]: binds

B1: EZHIP (EZH1/2 inhibitory protein), the uncharacterized protein AU022751 (mouse testis) (protein, UniProt B1B0V2-1 1-589)
chain: T2 sequence
- binding [1]: binds

No constants are given. Whether binding was seen depends on the method and setting. Binding seen in cells or lysates may run through a third protein. Here binding means that the protein was enriched with, or labelled near, the bait; the list need not be complete. For some of these results: Where a sequence is shown, tags or fusion partners need not be part of it.
